These results are taken from paper PMC3303587.

Sequences of proteins named here, by UniProt entry; tags and fusion partners are left off. Residues count along the entry.
UniProt P31040, residues 43-664: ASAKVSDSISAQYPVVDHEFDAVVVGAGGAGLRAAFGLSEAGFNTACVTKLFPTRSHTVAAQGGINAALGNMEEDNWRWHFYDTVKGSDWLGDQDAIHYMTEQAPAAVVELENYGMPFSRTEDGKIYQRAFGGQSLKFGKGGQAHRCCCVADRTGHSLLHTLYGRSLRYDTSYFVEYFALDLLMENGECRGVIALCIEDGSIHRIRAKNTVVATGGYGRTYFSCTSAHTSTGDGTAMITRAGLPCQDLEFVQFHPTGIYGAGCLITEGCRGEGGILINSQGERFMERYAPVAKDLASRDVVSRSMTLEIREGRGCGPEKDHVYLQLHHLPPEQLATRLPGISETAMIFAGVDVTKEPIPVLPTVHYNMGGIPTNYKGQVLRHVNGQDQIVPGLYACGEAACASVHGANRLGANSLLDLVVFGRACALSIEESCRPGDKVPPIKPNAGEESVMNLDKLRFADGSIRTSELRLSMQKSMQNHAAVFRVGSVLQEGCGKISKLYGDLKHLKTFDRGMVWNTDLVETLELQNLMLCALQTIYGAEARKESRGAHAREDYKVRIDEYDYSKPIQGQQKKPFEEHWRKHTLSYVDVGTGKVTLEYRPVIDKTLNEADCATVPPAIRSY

Results are given in words; binding and its absence hold for the method and conditions named. In cells and extracts the contact can be indirect. Some binding calls cover weakened binding; strength is not graded here. Where a sequence is shown, tags or fusion partners need not be part of it.

Test [1] has as its target T1, Uncoupling protein-4 (UCP4), FLAG-tagged (human) (UniProt O95847).
T1 sequence: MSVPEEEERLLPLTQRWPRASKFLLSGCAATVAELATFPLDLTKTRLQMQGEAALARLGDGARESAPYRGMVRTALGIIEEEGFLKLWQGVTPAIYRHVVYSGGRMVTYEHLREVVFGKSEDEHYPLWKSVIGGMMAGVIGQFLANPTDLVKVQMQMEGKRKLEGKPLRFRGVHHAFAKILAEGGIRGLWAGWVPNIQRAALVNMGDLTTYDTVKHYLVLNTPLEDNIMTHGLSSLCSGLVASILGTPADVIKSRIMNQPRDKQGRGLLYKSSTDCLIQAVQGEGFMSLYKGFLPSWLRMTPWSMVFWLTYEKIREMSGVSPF
In words: co-IP; mitochondrial lysate (500 ug) of UCP4-overexpressing SH-SY5Y cells in native lysis buffer, pre-cleared with Protein-G-sepharose; IP with anti-FLAG or anti-Complex II subunit Fp overnight at 4 C, Protein-G-sepharose 1 h; washed with Tris buffer pH 7.2 with 0.01% Tween 20; western blot with anti-FLAG or anti-Fp. A general note: Immunoblotting shows a protein as a band on a membrane.

Test [2] has as its target Mitochondrial Complex II subunit Fp (70 kDa) (human (endogenous in SH-SY5Y)) (UniProt P31040). The description is as above.

In the case of “Mitochondrial Complex II subunit Fp (70 kDa) (from UniProt P31040 43-664)”, the binding entry in test [1] is reported as “binds”.

B1: Uncoupling protein-4 (UCP4), FLAG-tagged (protein, UniProt O95847 1-323)
chain: T1 sequence
Turning to B1, the binding result in test [2] is “binds”.
